Screening data

Source: PubChem BioAssay AID1508623 (NCATS, 2021).

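Change in HTT-promoter-driven luminescence in engineered HEK293 reporter cells after a 24 h treatment, measured at one concentration.
Percent change in reporter signal versus vehicle (0%) down to no light (-100%); more negative values mean stronger inhibition of promoter activity.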

Values are in %.
Common to all entries: at 57.5 µM (top of the series).
Only part of the assay is listed here, not a random draw.

SMILES	activity change (%)
COc1ccc(NC(=O)c2c(C)oc3ccc(O)c(CN4CCCC(C)C4)c23)cc1 (stereo not shown)	-19.27
CCc1ccc(NC(=O)CC2C(=O)N(c3ccc(F)cc3)C(=O)N2Cc2ccc(F)cc2)cc1 (stereo not shown)	-37.74
Cc1ccccc1NC(=O)c1c(C)oc2ccc(O)c(CN3CCN(C)CC3)c12	-17.62
CCOc1ccc(C2C(=O)N(C3CCCCCC3)CC(=O)N2CCc2ccc(OC)c(OC)c2)cc1OC (stereo not shown)	-15.57
CCCCN1C(=O)CN(C2CCCCCC2)C(=O)C1c1ccc(OCC)c(OC)c1 (stereo not shown)	-20.03
O=C(Nc1cccc(O)c1)c1noc2c1CCc1ccccc1-2	2.578
Cc1cc(O)c2c(C)c(CC(=O)NCc3ccccc3Cl)c(=O)oc2c1	-20.24
CCCOc1ccc(NC(=O)CC2C(=O)N(c3ccc(OC)cc3)C(=O)N2CCc2ccncc2)cc1 (stereo not shown)	-10.17
COc1ccccc1N1CCN(C(=O)c2cc(CC(C)C)on2)CC1	-16.26
CCCOc1ccc(C2C(=O)N(C3CCC(C)CC3)CC(=O)N2CCC2=CCCCC2)cc1OC (stereo not shown)	-11.79
Cc1ccccc1CNC(=O)C1CCCCN1S(=O)(=O)c1ccc(F)cc1 (stereo not shown)	-17.84
Cc1nn(-c2ccc(N3CCOCC3)nn2)c(C)c1CCC(=O)Nc1ccc(F)cc1F	6.474
COc1ccc(C)cc1NS(=O)(=O)c1ccc2oc(=O)c3ncn(C)c3c2c1	-8.01
Cc1ccc(-n2nc(C)c(C(=O)NCCCN3CCN(c4cccc(Cl)c4)CC3)c2-n2cccc2)cc1	-34.24
COc1ccc(OC)c(-c2cc(C(=O)Nc3ccc(C)c(C)c3)no2)c1	-5.984
Cc1c(NC(=O)Nc2cccc(C(F)(F)F)c2)sc2nc3n(c(=O)c12)CCC(C)CC3 (stereo not shown)	-13.65
Cc1ccc(OCc2nnc(-c3ccccc3)o2)cc1	23.66
CC(=O)c1c(C)oc2ccc(N(C(=O)Oc3ccccc3)S(=O)(=O)c3ccc(Br)cc3)cc12	-24.07
Cn1c(=O)n(C)c2cc(NS(=O)(=O)c3ccc(F)cc3)c(NCc3ccccc3)cc21	88.44
CCCOc1ccc(C2C(=O)N(C3CCCCCC3)CC(=O)N2Cc2ccc(OC)cc2)cc1OC (stereo not shown)	-67.42
Cc1cc(C)c(NC(=O)Nc2sc3nc4n(c(=O)c3c2C)CCC(C)CC4)c(C)c1 (stereo not shown)	-14.93
COc1cccc(-c2cc(C(=O)Nc3c(C)nn(Cc4ccccc4Cl)c3C)no2)c1	-42.28
CCOc1ccc(NC(=O)CC2C(=O)N(c3cccc(C)c3)C(=O)N2Cc2cccnc2)cc1 (stereo not shown)	-22.76
Cc1ccc(-c2nn(CCC(N)=O)c(=O)c3ccccc23)cc1	-16.14
Cc1ccc(NC(=O)CCc2c(C)nn(-c3ccc(N4CCCCC4)nn3)c2C)cc1F	14.47
CCOc1ccc(C2C(=O)N(C3CCCCC3)CC(=O)N2CCc2ccccc2)cc1OC (stereo not shown)	-32.24
Cc1oc2ccc(O)c(CN3CCCC3)c2c1C(=O)Nc1cccc(Cl)c1C	-11.32
COc1cccc(OCCn2c(-c3ccc(Cl)cc3)nc3ccccc3c2=O)c1	-3.486
Cc1ccc(-c2cc(C(=O)Nc3c(C(=O)c4ccccc4)oc4ccccc34)no2)cc1F	-17.99
COc1ccc2c(c1)CCc1c(C(=O)Nc3ccccc3C(F)(F)F)noc1-2	9.399
Cc1cccc(N2CCN(C3=C(c4ccccc4)C(=O)c4ccccc43)CC2)c1C	-22.4
CCOc1ccc(S(=O)(=O)Nc2cc3c(C(=O)OC)c(COC)oc3c3ccccc23)cc1	-36.8
Cc1ccc(C2C(=O)N(C3CCCCCC3)CC(=O)N2CCC2=CCCCC2)cc1 (stereo not shown)	-71.26
CC1CCN(c2nn3c(=O)c(C(=O)NCc4ccc(Cl)cc4)cnc3s2)CC1	-6.637
CCc1ccc(NC(=O)CC2C(=O)N(c3ccc(Cl)cc3)C(=O)N2Cc2cccs2)cc1 (stereo not shown)	-27.37
CCOc1ccc(C2C(=O)N(C3CCCCCC3)CC(=O)N2CCc2ccccc2)cc1OC (stereo not shown)	-28.59
COc1ccc(C)cc1NS(=O)(=O)c1ccc2c(c1)[C@H]1C=CC[C@H]1[C@@H](c1cccc(Cl)c1)N2	-24.61
Cc1ccc(S(=O)(=O)Nc2cc3c(C(=O)OCc4ccccc4)c(C)oc3c3ccccc23)cc1	-33.3
CC1Cc2cc(S(=O)(=O)N3CCN(c4ccccc4F)CC3)ccc2N1C(=O)C1CCC1 (stereo not shown)	-62.13
Cc1ccc2nc(N3CCN(c4cccc(Cl)c4)CC3)c3nnnn3c2c1	-10.54
CCOc1cccc(OCCCn2c(-c3ccc(Br)cc3)nc3ccccc3c2=O)c1	-9.266
COc1ccccc1CNC(=O)CCc1c(C)nn(-c2ccc(N3CCCCC3)nn2)c1C	-7.701
CCOc1ccc(CNC(=O)c2cnc3sc(N4CCC(C)CC4)nn3c2=O)cc1OC	-12.7
Cc1cccc(N(C)c2nc3ccc(C)cc3n3nnnc23)c1	-34.24
Cc1nn(CC(=O)NC2CC2)c(=O)c2cc3cc(F)ccc3n12	-14.35
O=C(C1CCN(S(=O)(=O)Cc2ccccc2)CC1)N1CCN(c2cccc(Cl)c2)CC1	-14.97
COc1cc(NC(=O)CC2C(=O)N(c3cccc(C)c3)C(=O)N2Cc2ccc(F)cc2)cc(OC)c1 (stereo not shown)	-33.05
COC(=O)CN1C(=O)CSc2ccc(S(=O)(=O)Nc3cccc(C)c3)cc21	-47.24
COc1cc(-c2nnc(SCC(=O)NCc3ccccc3Cl)o2)cc(OC)c1OC	-0.568
CC1Cc2cc(S(=O)(=O)CCC(=O)Nc3ccccc3F)ccc2N1C(=O)C1CC1 (stereo not shown)	-45.06
COc1ccc(-c2cc(C(=O)Nc3ccc4c(c3)OCO4)no2)cc1OC	-8.402
CN(C)c1ccc(CNC(=O)c2cc3ccccn3n2)cc1	27.89
Cc1oc2ccc(O)c(CN3CCOCC3)c2c1C(=O)Nc1ccccc1	-8.156
O=C(CSc1nc(-c2ccco2)nc2cc(=O)[nH]n12)Nc1ccccc1Cl	-8.728

For reference, 4 entries once more:

* Cc1ccc(-n2nc(C)c(C(=O)NCCCN3CCN(c4cccc(Cl)c4)CC3)c2-n2cccc2)cc1 : activity change -34.24%
* Cc1ccc(-c2cc(C(=O)Nc3c(C(=O)c4ccccc4)oc4ccccc34)no2)cc1F : activity change -17.99%
* CC1Cc2cc(S(=O)(=O)N3CCN(c4ccccc4F)CC3)ccc2N1C(=O)C1CCC1 (stereo not shown) : activity change -62.13%
* CCOc1ccc(CNC(=O)c2cnc3sc(N4CCC(C)CC4)nn3c2=O)cc1OC : activity change -12.7%